{"source": "PubChem BioAssay AID1259405 (NCATS, 2018)", "aim": "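Mouse-designed siRNAs used to find CHO productivity engineering targets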 (primary screen)", "cell system": "Chinese hamster CHO-K1 ovary cells with stable secreted eGFP expression", "reagents": "single siRNA against mouse genes, 0.8 pmol siRNA per well (2 µl of 400 nM stock)", "time to read-out": "3 days", "measured": "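Percent of the per-plate non-targeting control median for intracellular GFP per well by laser scanning cytometry and for cell viability by ATP luminescence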", "reading the numbers": "GFP, % of control: higher = more GFP per well, higher productivity; viability (ATP), % of control: higher = more viable cells (more ATP)", "active means": "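a knock-down is called active if GFP reaches 120% or more of non-targeting control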", "note": "Here is an unselected part of about 50,000 deposited reagents. Over the whole deposit, about 4,000 (8%) got an active call. 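Mouse siRNA library applied to hamster cells; one well for each siRNA.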 Reagents against one gene are numbered here. No sequences are given here."}
{"gene": "Rgl1", "siRNA no.": 1, "GFP, % of control": 103, "viability (ATP), % of control": 93.4, "call": "inactive"}
{"gene": "Rgl1", "siRNA no.": 2, "GFP, % of control": 145, "viability (ATP), % of control": 80.8, "call": "active"}
{"gene": "Rgl1", "siRNA no.": 3, "GFP, % of control": 59.2, "viability (ATP), % of control": 57.4, "call": "inactive"}
{"gene": "Arfrp1", "siRNA no.": 1, "GFP, % of control": 114, "viability (ATP), % of control": 93.5, "call": "inactive"}
{"gene": "Arfrp1", "siRNA no.": 2, "GFP, % of control": 85.2, "viability (ATP), % of control": 97.3, "call": "inactive"}
{"gene": "Arfrp1", "siRNA no.": 3, "GFP, % of control": 94.3, "viability (ATP), % of control": 111, "call": "inactive"}

Active calls, of those listed so far:
{"gene": "Rgl1", "siRNA no.": 2, "GFP, % of control": 145, "viability (ATP), % of control": 80.8, "call": "active"}

Next results:
{"gene": "Gstm3", "siRNA no.": 1, "GFP, % of control": 142, "viability (ATP), % of control": 115, "call": "active"}
{"gene": "Gstm3", "siRNA no.": 2, "GFP, % of control": 69, "viability (ATP), % of control": 94.7, "call": "inactive"}
{"gene": "Gstm3", "siRNA no.": 3, "GFP, % of control": 112, "viability (ATP), % of control": 76.4, "call": "inactive"}
{"gene": "Strada", "siRNA no.": 1, "GFP, % of control": 124, "viability (ATP), % of control": 102, "call": "active"}
{"gene": "Strada", "siRNA no.": 2, "GFP, % of control": 52.3, "viability (ATP), % of control": 52, "call": "inactive"}
{"gene": "Strada", "siRNA no.": 3, "GFP, % of control": 111, "viability (ATP), % of control": 87.5, "call": "inactive"}
{"gene": "1700084P21Rik", "siRNA no.": 1, "GFP, % of control": 90.3, "viability (ATP), % of control": 83.8, "call": "inactive"}
{"gene": "1700084P21Rik", "siRNA no.": 2, "GFP, % of control": 137, "viability (ATP), % of control": 113, "call": "active"}
{"gene": "1700084P21Rik", "siRNA no.": 3, "GFP, % of control": 71.3, "viability (ATP), % of control": 63.8, "call": "inactive"}
{"gene": "Ltbp4", "siRNA no.": 1, "GFP, % of control": 86.8, "viability (ATP), % of control": 69.4, "call": "inactive"}
{"gene": "Ltbp4", "siRNA no.": 2, "GFP, % of control": 90.1, "viability (ATP), % of control": 88.5, "call": "inactive"}
